Our source for the binding values is patent US20250136720A1.

Protein sequences, listed by entry. Tags and fused reporters are not part of them. Lines headed by an entry give the natural chain unless they say otherwise; changes in a name come on top. Residues count along the entry.
UniProt Q07011, residues 24-186: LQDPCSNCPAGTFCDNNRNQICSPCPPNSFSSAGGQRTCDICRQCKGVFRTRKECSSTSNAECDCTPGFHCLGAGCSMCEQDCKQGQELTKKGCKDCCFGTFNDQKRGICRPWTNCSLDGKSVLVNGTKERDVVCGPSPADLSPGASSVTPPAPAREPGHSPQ
UniProt P97321: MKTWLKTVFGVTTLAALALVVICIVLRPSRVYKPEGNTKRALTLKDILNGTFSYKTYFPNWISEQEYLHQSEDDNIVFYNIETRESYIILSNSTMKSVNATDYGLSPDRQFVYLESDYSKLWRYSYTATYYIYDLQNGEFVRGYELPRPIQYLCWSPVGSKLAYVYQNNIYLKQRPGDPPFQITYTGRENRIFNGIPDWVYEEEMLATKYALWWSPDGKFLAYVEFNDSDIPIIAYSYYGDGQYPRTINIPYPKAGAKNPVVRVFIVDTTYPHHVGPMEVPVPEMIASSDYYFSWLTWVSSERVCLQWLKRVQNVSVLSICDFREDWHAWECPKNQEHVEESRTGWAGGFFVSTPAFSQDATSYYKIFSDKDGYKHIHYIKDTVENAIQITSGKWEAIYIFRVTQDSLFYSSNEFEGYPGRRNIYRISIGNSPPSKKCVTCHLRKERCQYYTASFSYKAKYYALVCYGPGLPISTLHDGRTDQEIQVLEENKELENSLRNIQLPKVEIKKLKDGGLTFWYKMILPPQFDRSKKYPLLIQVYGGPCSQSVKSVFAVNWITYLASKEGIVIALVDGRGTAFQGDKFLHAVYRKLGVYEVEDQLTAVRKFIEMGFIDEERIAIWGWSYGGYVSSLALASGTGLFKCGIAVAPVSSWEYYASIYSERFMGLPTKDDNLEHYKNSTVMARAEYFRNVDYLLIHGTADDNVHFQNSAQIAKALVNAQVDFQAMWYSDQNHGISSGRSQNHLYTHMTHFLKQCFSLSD

Residue numbers refer to the chain shown, from its start. Results are given in words; binding and its absence hold for the method and conditions named. Some binding calls cover weakened binding; strength is not graded here.

In experiment [1] the target is biotinylated huCD137-6xHis (human) (UniProt Q07011). In words: sandwich ELISA, Fab captured by anti-Fd, biotinylated huCD137. On the technique in general: In an ELISA, binding on a coated surface is turned into a signal by an enzyme label.
Experiment [2] has the same target. Put plainly: sandwich ELISA: Fab captured by anti-Fd, titration of biotinylated huCD137 (x axis: Log concentration, ug/ml AG).
The target is the same in experiment [3]. In words: ELISA, Fab captured by anti-Fd, biotinylated huCD137 (y axis unlabelled, 0.00-0.75; no negative control on the sheet).
Experiment [4] has the same target. Put plainly: ELISA, Fab captured by anti-Fd, biotinylated huCD137 (y axis unlabelled, 0.00-1.75; no negative control on the sheet).
Experiment [5] deals with Murine Fibroblast Activation Protein (FAP) on B16 cells (mouse) (UniProt P97321). In words: flow cytometry, scFv-Fc on B16 cells expressing murine FAP against B16 wild type. For orientation: Flow cytometry measures light scatter and fluorescence of single cells or particles in a stream.

B1: chimeric CD137 B21 Fab (Fab, V domains shown)
VH: EVKLVESEGGLVQPGSSMKLSCTASGFTFSDFYMAWVRQVPEKGLEWVANINYDGSSTYYLDSLKSRFIISRDNARNILYLQMSSLKSEDTATYYCAREGDEGWYFDVWGAGTTVTVSS
VL: DIVMTQSHKFMSTSVGDRVSITCKASQDVSTAVAWYQQKPGQSPKLLIYSASYRYTGVPDRFTGSGSGTDFTFTISSVQAEDLAVYYCQQHYSNPWTFGGGTKLEIK
B1: the binding entry in experiment [1], in experiment [2], in experiment [3] and in experiment [4] was “binds” throughout.

B2: FAP.63.G3 (Fc fusion)
VH: DVQLVESGGGVVRPGESLTLSCAASGFTFSNYDMGWVRQAPGEGLEWVSGIRGRGGSTYYADSVKGRFTISRDSSKNTLYLQMNSLRAEDTAVYYCAKENNRHSFFEYWGLGTLVTVSS
VL: EIVLTQSPGTLSLSPGERATLSCRASQSVGHYLAWYQQKPGQAPRLLIYDASNRAIDIPDRFSGSGSGTEFTLTISRLEPEDFAVYYCQQYYNNWPPLTFGGGTKVEIK
Turning to B2, in experiment [5], the binding entry is on record as “binds”.

B3: B21-55 (Fab, V domains shown)
VH: EVQLVESGGGLVQPGGSLRLSCAASGFTFSDFYMAWVRQAPGKGLEWVANINYDGSSTYYLDSLKSRFTISRDNAKNILYLQMNSLRAEDTAVYYCAREGDEGWYFDVWGQGTTVTVSS
VL: DIQMTQSPSSLSASVGDRVTITCKASQDVSTAVAWYQQKPGKAPKLLIYSASYRYTGVPSRFSGSGSGTDFTLTISSLQPEDFAVYYCQQHYSNPWTFGQGTKLEIK
Consider B3, for which the binding result in experiment [1] and in experiment [3] was “binds” throughout.

B4: B21-49 (Fab, V domains shown)
VH: B3 VH with R67K, N84Q
VL: B3 VL with S60D
In the case of B4, the binding entry in experiment [1] and in experiment [3] was “binds” each time.

B5: B21-v16 (Fab, V domains shown)
VH: B3 VH with A35S, D54E, T58K, L61V, D62E, L64V, S66G
VL: B3 VL with V29I, T31S, Y53S
As to B5, the binding result in experiment [4] is listed as “binds”.

B6: B21-v17 (Fab, V domains shown)
VH: B3 VH with A35S, D54E, L61V, L64V, S66G
VL: B3 VL with K24R, V29I
Regarding B6, the binding result in experiment [4] was “binds”.
